Reference: patent US4591589A, “2-aryl pyrazolo[4,3-c]cinnolin-3-ones” (Roussel Uclaf, priority 1985, dated 1986)
At least one structure is not confirmed: it was looked up by name or label, or the drawing left a doubt.

Key:
rats = assay: Staircase test; type: in vivo; conditions: 20 mg/kg
Method: The apparatus and the method used are described by THIEBOT et al [Psychol-pharmacologia (Berlin), 1973, Vol. 31, p. 77]. The experiment was carried out on groups of 15 inexperienced rats and the animals were put individually in the enclosure 1 hour after administration of the compound studied. The number of straightenings up and the number of steps claimed were counted for 3 minutes.

mice = assay: Plate test in mice (electric shocks); type: in vivo; conditions: conclusion in words; mice (Example 1 also rats)
Method: The apparatus (Apelab) and the method used are described by BOISSER et al [European J. Pharmacol., 1968, Vol. 4, p. 145]. The plates were linked to a stimulator (U. Sachs, Roucaire) which enabled electric shocks of 120 volts to be delivered during 0.5 seconds. The tests were carried out on groups of 10 mice or rats half an hour after oral administration of the compound studied and each animal has put individually on the apparatus. After 15 seconds of free exploration, it was submitted to an electric shock each time it passed from one plate to another, a minimum of 3 seconds being observed between two shocks. The number of shocks delivered was counted over 1 minute and the results obtained were compared to those observed in the control animals in a test by Dunnett.

benzodiazepine receptors = assay: Affinity for benzodiazepine receptors (displacement of 3H diazepam, rat brain cortex homogenate); type: binding; conditions: rat brain cortices; 3H diazepam 10^-9 M, 30 minutes at 0° C., pH 7.4; read-out: Cl 50 (concentration inhibiting by 50% the specific bonding of 3H diazepam)
Method: The cortices removed from the brains of male rats weighing an average of 150 g were homogenized to one twentieth part (weight/volume) in 0.32M sucrose. After centrifuging the homogenate at 1000 g for 10 minutes at 0° C., the supernatant layer was centrifuged at 30,000 g for 20 minutes at +4° C. The residue was suspended in 20 volumes of Tris HCl 50 mM buffer with a pH of 7.4 and centrifuged at 30,000 g for 20 minutes at +4° C. The new residue obtained was suspended in 50 ml of Krebs Tris HCl buffer, pH 7.4.
2 ml of this suspension in the presence of ^3 H diazepam at a concentration of 10^-9 M was incubated for 30 minutes at 0° C., alone, and with increasing concentrations of the product under test, or to determine the non-specific fixation, with non-radio-active diazepam at a concentration of 10^-6 M. The incubated suspensions were filtered on Whatman GF/C and the filters were washed twice with 5 ml of Krebs Tris HCl buffer, pH 7.4, at 0° C. The radioactivity of the filters was measured by liquid scintillation. The activity of the product was expressed by CI 50: concentration inhibiting by 50% the specific bonding of ^3 H diazepam, determined graphically.

## O=c1c2n[nH]c3ccc(Cl)cc3c-2nn1-c1ccccc1 [Example 1, 8-chloro-2,5-dihydro-2-phenyl-3H-pyrazolo[4,3-c]cinnolin-3-one]
rats; 1 hour after administration, counted for 3 minutes
  number of steps climbed: without noticeable modification of the number of steps climbed
rats; conclusion in words
  anxiety reducing activity (staircase test): good anxiety reducing activity
mice
  anxiety reducing activity (plate test): good anxiety reducing activity
Benzodiazepine receptors
  IC50: 1.4 nM
